# Experimental data reported in publication PMC10163288.
# The list shows a part of the results.
# B1: il10ra_site1_normal_mot_HHH_b2_01986_af2_000000130_0001_1_18_H_._HHH_b2_08065_0001_0000200013_0000001_0 (protein)
# chain: SSSSSDEAQRVWELIREAFELYRRGNPEEAQRLLEEAEELAEEGNNPWLESNVRRALRQLSSSSS
# B2: il10ra_site1_sap_23_mot_HHH_b1_06348_000000162_0001_1_15_H_._HHH_b1_08027_0001_0000100008_0000001_0_0001 (protein)
# chain: SSSSRSERVWELIREALELLANGNPEEAREVLEEAEELAREANSWILERNVELLLRDVELRSSSS
# B3: il10ra_site1_normal_mot_HHH_b1_06125_000000022_0001_1_19_H_._HHH_b1_03671_af2_0001_0000200007_0000001_0 (protein)
# chain: SSSSDDEALKLSLEALRLALRGNPEEAQEVAEKALELAEEEGDERLARIIEELLQTIRNQSSSSS
# B4: il10ra_site1_normal_mot_HHH_b1_08440_000000140_0001_1_20_H_._HHH_b1_00906_af2_0001_0000100001_0000001_0 (protein)
# chain: SSSSDLEEEVEELLEELKQAKSQEEFAELALRVLRVAIESSDPELLEEVWEVIKRVAERLSSSSS
# B5: il10ra_site1_sap_19_mot_HHH_b1_02591_000000249_0001_1_18_H_._HHH_b1_01157_0001_0000300022_0000001_0_0001 (protein)
# chain: SSSSDNIERVVEFVKRALEALARAGDEEHVETLARVVLEHLERAGNEELFEELEEFVRELLSSSS
# B6: il10ra_site1_sap_16_mot_802863e75c239dc72d0ffd0be86c571b_0001_1_000000009_0001_36_49_H_._HHH_b1_01385_0001_0000100003_0000001_1_0001 (protein)
# chain: SSSSDEEVRQRLRALLWFARQISNREAARLAVREAAELAKEEGDEELLREIEELLEELENSSSSS
# B7: il10ra_site1_normal_mot_HHH_b1_00999_000000080_0001_41_55_H_._HHH_b2_05235_0001_0000400024_0000001_0 (protein)
# chain: SSSSSSDVEELLEEAQELRERGNPKEALEVLQRAVRHIFELGDKELLQELWELVRRIGSSSSSSS
# B8: il10ra_site1_sap_16_mot_HHH_b2_02053_af2_000000006_0001_3_19_H_._HHH_b2_05522_0001_0000600036_0000001_0_0001 (protein)
# chain: SSSSSEVEEEVEELIREVEEALRQGDSHKAAQLLIEAVEIAAENNNPELIRELAKLSREIFSSSS
# B9: il10ra_site1_sap_25_mot_HHH_b1_06816_000000239_0001_1_19_H_._HHH_b1_08396_af2_0001_0000100002_0000002_0_0001 (protein)
# chain: SSSSSSSDAEEEVERLLEEAEEDPRHALELLQEAIHLAVQASDPELLRAVWEVLKRLASSSSSSS
# B10: il10ra_site1_sap_21_mot_HHH_b2_03425_000000200_0001_22_39_H_._HHH_b1_00826_0001_0000300018_0000001_0_0001 (protein)
# chain: SSSSSSDDALELVQKAFHAALRGNPEEAEELLEEARKIAEELGNEKVLEMIRDLERALSSSSSSS
# B11: il10ra_site1_sap_24_mot_HHH_b2_00984_000000042_0001_1_20_H_._a9737a16b0b5168389c1a5856fbd9e1f_0001_0001_0000400005_0000001_0_0001 (protein)
# chain: SSSSSDVSERLYELSRRAVELDSEGNPEEARELLEEAEELARENNNQVLLANIEYLLELLSSSSS
# B12: il10ra_site1_sap_17_mot_HHH_b1_06790_000000034_0001_1_15_H_._HHH_b2_02172_0001_0000300017_0000002_0_0001_af2pred_0001 (protein)
# chain: SSSSSDRERVERAAKLARRALELGDPELAKTLLKKALELAKRAGDEELQEEIEELLEELGSSSSS
# B13: il10ra_site1_sap_25_mot_2c1a291787c6f40772924d4e9068d803_0001_af2_000000187_0001_34_48_H_._HHH_b2_07308_af2_0001_0000400007_0000002_0_0001_af2pred_0001 (protein)
# chain: SSSSSTREEVIKRVIELLREARRIEDPEEREEVLEEAHRLAEEGNNELLKFIVESLERKLSSSSS
# B14: il10ra_site1_normal_mot_HHH_b2_05548_000000224_0001_41_54_H_._HHH_b2_03931_0001_0000300038_0000001_0 (protein)
# chain: SSSSSDEEELERLVKELEEALKEGDERLVAKLTTRLFDLVAKTNDEEAQRVVREAVEFINSSSSS
# B15: il10ra_site1_sap_20_mot_b26a303360aa2756ef5b79665ce52f45_0001_000000179_0001_1_11_H_._HHH_b2_05203_0001_0000200021_0000001_0_0001 (protein)
# chain: SSSSDEEMQEVFELLREAAEAHHEGDKEEARKILERAEEIAEELGNILLLWQVEFLLRLLKSSSS
# B16: il10ra_site1_sap_28_mot_HHH_b1_08477_000000091_0001_40_57_H_._HHH_b2_08053_0001_0000100005_0000001_0_0001 (protein)
# chain: SSSSDDYEHAKKLIEEAAQLQHNGNPEEAERVLKELEEFLEERNDEVTLWAVRHLLKLIERSSSS
# B17: il10ra_site1_sap_29_mot_HHH_b1_04100_af2_000000180_0001_1_19_H_._HHH_b1_08236_0001_0000200021_0000001_0_0001 (protein)
# chain: SSSSDEERLEELLKELEELIEEGDRERALELMQEIIRLAFRLSDPEALRALWELAEKLKKSSSSS
# B18: il10ra_site1_normal_mot_HHH_b2_03801_000000188_0001_20_36_H_._HHH_b2_00015_0002_0000300022_0000002_1_af2pred_0001 (protein)
# chain: SSSSSDEAERAVRLLLRAAKQIENEEAVRLTLRDAKFTAEFLNDEELQELVREVAEELLSSSSSS
# B19: il10ra_site1_normal_mot_HHH_b1_02881_000000046_0001_1_20_H_._HHH_b1_08287_0001_0000300053_0000001_0 (protein)
# chain: SSSSSRFEERLEQLLEELEELIREGDSDEFYRVVREIIELAIEGNNEEFLRRLEELLQEALSSSS
# B20: il10ra_site1_normal_mot_HHH_b1_08446_000000041_0001_1_19_H_._HHH_b2_02685_0001_0000300031_0000001_0 (protein)
# chain: SSSSSSYREEVEELLEEAKHIEDVDERYRVLREAIELAVEGQDPEAERLVHEVLRELLRSSSSSS
# B21: il10ra_site1_normal_mot_2c1a291787c6f40772924d4e9068d803_0001_af2_000000187_0001_34_48_H_._HHH_b2_03753_af2_0001_0000200004_0000001_0_af2pred_0001 (protein)
# chain: SSSSDVKERVLHLLIRAFRLFEQGNEEEAKRLAEEAHELAEEEGDQRLAHAVRAFEELLRSSSSS
# B22: il10ra_site1_sap_22_mot_HHH_b2_04057_000000065_0001_1_20_H_._HHH_b2_05849_0001_0000400020_0000001_1_0001 (protein)
# chain: DELEEELRELVKRGDEEKVAELAAKVAKEKGSFSPEQLRALKLFIRALFRDNEEVAEHLARTVIS
# B23: il10ra_site1_sap_19_mot_HHH_b2_03708_000000000_0001_1_18_H_._HHH_b1_04704_0001_0000300030_0000001_0_0001 (protein)
# chain: SSSSTDELFEEVKRIIEEAIRLWREGNPEEARRLVEEALEEARENNNWALVWALEHLLRDLSSSS
# B24: il10ra_site1_sap_13_mot_HHH_b1_05860_000000142_0001_1_19_H_._HHH_b2_05206_af2_0001_0000500019_0000001_0_0001_1 (protein)
# chain: SSSSSAAERSVKRLLEAAKDIDDPEYVRLTLRFAKASARANNNEELEREIEEVERELKELLSSSS
# B25: il10ra_site1_sap_24_mot_HHH_b2_08186_000000021_0001_43_56_H_._HHH_b1_07178_af2_0002_0000100005_0000001_0_0001 (protein)
# chain: SSSSDDLTEEAWEILRKVLELRAQGDEEKARELLEEAEEIAEEAGNFILKFVIEQLQRQLKSSSS
# B26: il10ra_site1_sap_23_mot_HHH_b2_00475_000000107_0001_44_57_H_._HHH_b1_05482_0001_0000100004_0000002_0_0001_af2pred_0001 (protein)
# chain: DEIEELLRLLAQALIEAQKRNDEEALKLLLEALVLLHRALQKNDEELKEEANEFAKEVIKEAESS
# B27: il10ra_site1_normal_mot_HHH_b1_05357_000000034_0001_23_39_H_._ems_3hC_618_0001_0001_0000600039_0000001_0_af2pred_0001 (protein)
# chain: KREALDRATYLIIRAFALANDDDPEAREEAEELIKEAEELAKEANDPSVEFAVKLAKELIEEACS
# B28: il10ra_site1_sap_26_mot_HHH_b1_03260_000000175_0001_42_57_H_._HHH_b1_03105_0001_0000200023_0000001_0_0001 (protein)
# chain: SSSSSSDEEERLEELLEELHKAKDLEEIARIAKEAVRIAIQLNDHERFEELWKLAMRLFSSSSSS
# B29: il10ra_site1_sap_12_mot_39ab2cb694c8b9c1dc7e65c0d672c93e_0001_000000010_0001_53_65_H_._HHH_b1_04946_0001_0000700037_0000001_0_0001 (protein)
# chain: SSSSSEEIQEAMRLLEEASELDQNGNPEEAEKVLEEAEKIAEEGGNWSLRHALKHLLRVIRSSSS
# B30: il10ra_site1_sap_23_mot_HHH_b1_07527_000000076_0001_1_15_H_._HHH_b2_01966_af2_0001_0000300022_0000001_0_0001 (protein)
# chain: SSSSSDENREAYELVEEAFKIEDPEERERLLEEAQELAEEAGNFSLLFAIRHALEDARRGSSSSS
# B31: il10ra_site1_sap_23_mot_9c3e5e2d2b9ffb70dc788f52fbfab6d5_0001_1_000000198_0001_1_14_H_._HHH_b1_05469_0001_0000200014_0000001_1_0001 (protein)
# chain: SSSSDKEEIEELLKQLEEALREGDRELFTKILDRVMELIEKLGDIELAEELQELFREAVQKSSSS
# B32: il10ra_site1_sap_25_mot_HHH_b1_02809_af2_000000277_0001_40_57_H_._HHH_b1_06904_0001_0000300018_0000002_0_0001 (protein)
# chain: SSSEHDEFYRVVKEALEAAANKDREKAKELVEEAEEIAEELGSRVARWIVEFVEEAVKRNTKSSS
# B33: il10ra_site1_normal_mot_HHH_b2_00273_000000062_0001_23_39_H_._HHH_b2_06886_0001_0000200026_0000001_0 (protein)
# chain: SSSSDEEERELEKLLEEVEELAREGDEERFLRTVMRALQLAFKLGDQEVLQALWRLVKLLSSSSS
# B34: il10ra_site1_normal_mot_HHH_b1_02997_000000220_0001_39_52_H_._HHH_b1_04034_0001_0000300020_0000001_0 (protein)
# chain: SSSSDVEELYELSREAAKLFRDGNPEEAQRVLEEAEELAEELNNPNFLHNLRYLLRKIRESSSSS
# B35: il10ra_site1_normal_mot_HHH_b1_05254_000000006_0001_1_19_H_._HHH_b2_01851_af2_0001_0000100002_0000002_0 (protein)
# chain: SSSSDEAYRLAREVIERVVELFRRGNEEEAKQLLEEALEEVERLNNEAAFWALEHLLRVLNSSSS
# B36: il10ra_site1_normal_mot_HHH_b2_03183_af2_000000055_0001_40_56_H_._HHH_b1_04703_0001_0000100001_0000003_0 (protein)
# chain: SSSSSDEERELVEAALRLAKQVSPRTVRFLLIAAEKRAELTNDPELRRLAEEIEEILEELSSSSS
# B37: il10ra_site1_normal_mot_HHH_b2_06857_af2_000000179_0001_42_54_H_._HHH_b2_07872_af2_0001_0000600039_0000002_0 (protein)
# chain: SSSSSNEELERLFKLAREAAELHQKDPEEAEEVLREAQELAEELNNELTAIQLKFLLRRLSSSSS
# Molecular target: il10ra, Q13651
# Assay: yeast display titration
row,Binder,apparent Kd
1,B1,inactive: no binding seen
2,B2,inactive: no binding seen
3,B3,inactive: no binding seen
4,B4,inactive: no binding seen
5,B5,inactive: no binding seen
6,B6,inactive: no binding seen
7,B7,inactive: no binding seen
8,B8,inactive: no binding seen
9,B9,inactive: no binding seen
10,B10,inactive: no binding seen
11,B11,inactive: no binding seen
12,B12,inactive: no binding seen
13,B13,inactive: no binding seen
14,B14,inactive: no binding seen
15,B15,inactive: no binding seen
16,B16,inactive: no binding seen
17,B17,inactive: no binding seen
18,B18,inactive: no binding seen
19,B19,inactive: no binding seen

row,Binder,apparent Kd
1,B20,inactive: no binding seen
2,B21,inactive: > 437 nM
3,B22,inactive: no binding seen
4,B23,inactive: no binding seen
5,B24,inactive: no binding seen
6,B25,inactive: no binding seen
7,B26,inactive: no binding seen
8,B27,inactive: no binding seen
9,B28,inactive: no binding seen
10,B29,inactive: no binding seen
11,B30,inactive: no binding seen
12,B31,inactive: no binding seen
13,B32,inactive: no binding seen
14,B33,inactive: no binding seen
15,B34,inactive: no binding seen
16,B35,inactive: no binding seen
17,B36,inactive: no binding seen
18,B37,inactive: no binding seen

# Reprinted at random: 2 records from the list, in no set order.
row,Binder,apparent Kd
4,B23,inactive: no binding seen
14,B33,inactive: no binding seen
